Experimental findings from paper PMC10567733, “C9orf72-catalyzed GTP loading of Rab39A enables HOPS-mediated membrane tethering and fusion in mammalian autophagy” (Nature Communications, 2023) are described below.

Results are given in words; binding and its absence hold for the method and conditions named. In cells and extracts the contact can be indirect. A yes stands for co-enrichment or nearness to the bait. Other partners may have been found. For some of these results: Sequences can lack the tags named with a protein.

Experiment [1] has as its target ZZ–3 × Flag-STX17 (UniProt P56962). Briefly: affinity purification with mass spectrometry; TAP-MS: ZZ-3xFlag-STX17 from stable 293T TetR cells; IgG beads, TEV cleavage, anti-FLAG beads, FLAG peptide elution; bands cut from a silver-stained gel.
Experiment [2] concerns the target T1, ZZ–3 × Flag-STX17, P56962.
T1 chain: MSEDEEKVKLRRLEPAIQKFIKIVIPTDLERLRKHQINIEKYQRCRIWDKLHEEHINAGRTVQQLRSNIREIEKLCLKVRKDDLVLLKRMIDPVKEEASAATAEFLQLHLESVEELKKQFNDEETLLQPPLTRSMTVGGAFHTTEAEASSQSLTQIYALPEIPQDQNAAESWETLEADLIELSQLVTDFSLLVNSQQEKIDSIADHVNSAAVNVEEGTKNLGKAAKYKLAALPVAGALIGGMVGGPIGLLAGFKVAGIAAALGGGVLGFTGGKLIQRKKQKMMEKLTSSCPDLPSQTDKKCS
The experiment is described as above. To be noted: remark: other sources report otherwise.

B1: YKT6 found with STX17 by TAP-MS (protein, UniProt O15498 1-198)
chain: MKLYSLSVLYKGEAKVVLLKAAYDVSSFSFFQRSSVQEFMTFTSQLIVERSSKGTRASVKEQDYLCHVYVRNDSLAGVVIADNEYPSRVAFTLLEKVLDEFSKQVDRIDWPVGSPATIHYPALDGHLSRYQNPREADPMTKVQAELDETKIILHNTMESLLERGEKLDDLVSKSEVLGTQSKAFYKTARKQNSCCAIM
With B1, in experiment [1], the binding result is recorded as “binds”.

B2: VPS16 found with STX17 by TAP-MS (protein, UniProt Q9H269 1-839)
chain: MDCYTANWNPLGDSAFYRKYELYSMDWDLKEELRDCLVAAAPYGGPIALLRNPWRKEKAASVRPVLDIYSASGMPLASLLWKSGPVVSLGWSAEEELLCVQEDGAVLVYGLHGDFRRHFSMGNEVLQNRVLDARIFHTEFGSGVAILTGAHRFTLSANVGDLKLRRMPEVPGLQSAPSCWTVLCQDRVAHILLAVGPDLYLLDHAACSAVTPPGLAPGVSSFLQMAVSFTYRHLALFTDTGYIWMGTASLKEKLCEFNCNIRAPPKQMVWCSRPRSKERAVVVAWERRLMVVGDAPESIQFVLDEDSYLVPELDGVRIFSRSTHEFLHEVPAASEEIFKIASMAPGALLLEAQKEYEKESQKADEYLREIQELGQLTQAVQQCIEAAGHEHQPDMQKSLLRAASFGKCFLDRFPPDSFVHMCQDLRVLNAVRDYHIGIPLTYSQYKQLTIQVLLDRLVLRRLYPLAIQICEYLRLPEVQGVSRILAHWACYKVQQKDVSDEDVARAINQKLGDTPGVSYSDIAARAYGCGRTELAIKLLEYEPRSGEQVPLLLKMKRSKLALSKAIESGDTDLVFTVLLHLKNELNRGDFFMTLRNQPMALSLYRQFCKHQELETLKDLYNQDDNHQELGSFHIRASYAAEERIEGRVAALQTAADAFYKAKNEFAAKATEDQMRLLRLQRRLEDELGGQFLDLSLHDTVTTLILGGHNKRAEQLARDFRIPDKRLWWLKLTALADLEDWEELEKFSKSKKSPIGYLPFVEICMKQHNKYEAKKYASRVGPEQKVKALLLVGDVAQAADVAIEHRNEAELSLVLSHCTGATDGATADKIQRARAQAQKK
B2: the binding entry in experiment [1] is “binds”.

B3: GST-Rab39A (natural protein, human, UniProt Q14964 1-217, looked up)
chain: METIWIYQFRLIVIGDSTVGKSCLLHRFTQGRFPGLRSPACDPTVGVDFFSRLLEIEPGKRIKLQLWDTAGQERFRSITRSYYRNSVGGFLVFDITNRRSFEHVKDWLEEAKMYVQPFRIVFLLVGHKCDLASQRQVTREEAEKLSADCGMKYIETSAKDATNVEESFTILTRDIYELIKKGEICIQDGWEGVKSGFVPNTVHSSEEAVKPRKECFC
notes: Rab39A, human, cloned from human cDNA; unprenylated; also called GST-R39A; purified Rab39A; source: E. coli BL21 (DE3), purified (Glutathione Sepharose); not shown: GST, N-terminal, kept
For B3, in experiment [1], the binding result is on record as “binds”.

B4: VAMP8 found with STX17 by TAP-MS, Q9BV40 1-100 (protein)
chain: MEEASEGGGNDRVRNLQSEVEGVKNIMTQNVERILARGENLEHLRNKTEDLEATSEHFKTTSQKVARKFWWKNVKMIVLICVIVFIIILFIVLFATGAFS
B4: the binding result in experiment [2] is on record as “binds”.
